{"sequences": {"note": "The chains behind the UniProt entries cited, without tags or fusion partners. Where a name states a change or a piece, a line headed by the entry shows the natural chain unless it says otherwise.", "UniProt Q4F883": "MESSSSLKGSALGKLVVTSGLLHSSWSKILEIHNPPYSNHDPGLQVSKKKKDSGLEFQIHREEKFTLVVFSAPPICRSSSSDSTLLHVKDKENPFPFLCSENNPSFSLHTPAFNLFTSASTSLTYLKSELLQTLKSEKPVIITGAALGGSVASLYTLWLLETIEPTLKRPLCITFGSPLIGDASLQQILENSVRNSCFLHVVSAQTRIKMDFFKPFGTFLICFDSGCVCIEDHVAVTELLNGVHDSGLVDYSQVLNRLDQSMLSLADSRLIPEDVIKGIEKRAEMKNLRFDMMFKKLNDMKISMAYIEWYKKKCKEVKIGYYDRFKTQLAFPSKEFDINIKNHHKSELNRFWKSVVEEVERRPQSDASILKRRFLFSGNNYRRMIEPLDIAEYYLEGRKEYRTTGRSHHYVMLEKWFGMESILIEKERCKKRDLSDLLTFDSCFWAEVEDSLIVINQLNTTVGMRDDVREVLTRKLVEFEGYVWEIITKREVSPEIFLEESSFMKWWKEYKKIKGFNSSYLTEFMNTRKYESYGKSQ"}, "source": "paper doi:10.1101/572826", "key": {"[1]": {"target": "3xFLAG-SlEDS1 (pAtEDS1:3xFLAG-SlEDS1) (tomato (Solanum lycopersicum))", "experiment": "co-IP"}, "[2]": {"target": "T1, AtEDS1-3xFLAG (pEDS1:gEDS1-3xFLAG) (Arabidopsis thaliana (Col)) (UniProt Q9XF23)", "T1 sequence": "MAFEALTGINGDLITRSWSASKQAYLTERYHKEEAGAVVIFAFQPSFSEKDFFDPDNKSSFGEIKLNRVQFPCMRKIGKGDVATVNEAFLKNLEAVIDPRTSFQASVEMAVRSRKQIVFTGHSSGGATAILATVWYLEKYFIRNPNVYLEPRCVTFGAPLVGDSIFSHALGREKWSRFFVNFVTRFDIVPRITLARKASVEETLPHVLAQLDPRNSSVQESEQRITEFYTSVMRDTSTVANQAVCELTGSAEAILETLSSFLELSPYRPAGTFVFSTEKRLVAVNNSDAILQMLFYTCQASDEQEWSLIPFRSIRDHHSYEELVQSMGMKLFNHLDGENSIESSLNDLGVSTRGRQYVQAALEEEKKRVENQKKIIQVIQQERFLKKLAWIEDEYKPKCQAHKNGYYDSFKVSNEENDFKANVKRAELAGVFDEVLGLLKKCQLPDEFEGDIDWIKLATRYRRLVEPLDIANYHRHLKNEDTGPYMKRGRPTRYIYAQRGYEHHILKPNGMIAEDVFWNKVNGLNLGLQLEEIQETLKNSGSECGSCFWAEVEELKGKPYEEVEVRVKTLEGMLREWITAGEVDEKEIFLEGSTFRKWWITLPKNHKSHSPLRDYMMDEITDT", "experiment": "co-IP"}, "[3]": {"target": "T2, 3xFLAG-AtEDS1 (pAtEDS1:3xFLAG-AtEDS1) (Arabidopsis thaliana (Col)) (UniProt Q9XF23)", "T2 sequence": "T1 sequence", "experiment": "co-IP"}, "[4]": {"target": "T3, Arabidopsis PAD4 (AtPAD4), LexA BD fusion for yeast two-hybrid (Arabidopsis thaliana (Col)) (UniProt Q9S745)", "T3 sequence": "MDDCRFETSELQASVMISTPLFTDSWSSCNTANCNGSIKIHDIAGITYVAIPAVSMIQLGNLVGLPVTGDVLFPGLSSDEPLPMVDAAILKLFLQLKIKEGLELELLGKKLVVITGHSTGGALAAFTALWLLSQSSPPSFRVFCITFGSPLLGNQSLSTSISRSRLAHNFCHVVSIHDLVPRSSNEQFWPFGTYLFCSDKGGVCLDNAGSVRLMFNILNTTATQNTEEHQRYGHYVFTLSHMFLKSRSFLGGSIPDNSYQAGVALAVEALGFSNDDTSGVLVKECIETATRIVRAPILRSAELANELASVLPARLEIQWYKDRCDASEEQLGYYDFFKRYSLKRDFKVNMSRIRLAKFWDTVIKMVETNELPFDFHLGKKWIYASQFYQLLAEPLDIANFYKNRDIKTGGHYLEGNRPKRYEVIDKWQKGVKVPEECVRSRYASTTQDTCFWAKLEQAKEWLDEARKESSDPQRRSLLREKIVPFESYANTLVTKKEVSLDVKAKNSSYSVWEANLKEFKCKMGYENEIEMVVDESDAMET", "experiment": "two-hybrid"}, "[5]": {"target": "Brachypodium distachyon PAD4 (BdPAD4), LexA BD fusion for yeast two-hybrid (Brachypodium distachyon) (UniProt I1IMT7)", "experiment": "two-hybrid"}, "[6]": {"target": "tomato PAD4 (SlPAD4), LexA BD fusion for yeast two-hybrid (tomato (Solanum lycopersicum))", "experiment": "two-hybrid"}}, "note": "Results are given in words; binding and its absence hold for the method and conditions named. For some assays here: Binding calls can cover weak binding; strength is not graded here. For some assays here: Sequences can lack the tags named with a protein. For some assays here: In cells and extracts the contact can be indirect."}
{"substance": "AtSAG101-YFP (35S:gAtSAG101-YFP) (from UniProt Q4F883)", "values": [{"measurement": "binding", "setting": "[1]", "result": "binds"}, {"measurement": "binding", "setting": "[2]", "result": "binds"}]}
{"substance": "NbSAG101a-GFP (35S:NbSAG101a-GFP) (Nicotiana benthamiana)", "values": [{"measurement": "binding", "setting": "[2]", "result": "no binding"}]}
{"substance": "YFP-SlPAD4 (pAtPAD4:YFP-SlPAD4) (tomato (Solanum lycopersicum))", "values": [{"measurement": "binding", "setting": "[3]", "result": "no binding"}]}
{"substance": "tomato EDS1 (SlEDS1), Gal4 AD fusion for yeast two-hybrid (from UniProt A0A3Q7H109)", "values": [{"measurement": "binding", "setting": "[4]", "result": "binds"}, {"measurement": "binding", "setting": "[5]", "result": "binds"}, {"measurement": "binding", "setting": "[6]", "result": "binds"}]}
{"substance": "NbSAG101b-GFP (35S:NbSAG101b-GFP) (Nicotiana benthamiana)", "values": [{"measurement": "binding", "setting": "[2]", "result": "no binding"}]}
{"substance": "Brachypodium distachyon EDS1 (BdEDS1), Gal4 AD fusion for yeast two-hybrid (from UniProt A0A0Q3LC91)", "values": [{"measurement": "binding", "setting": "[5]", "result": "binds"}, {"measurement": "binding", "setting": "[6]", "result": "no binding"}]}
{"substance": "YFP-HvPAD4 (pAtPAD4:YFP-HvPAD4) (barley (Hordeum vulgare))", "values": [{"measurement": "binding", "setting": "[3]", "result": "no binding"}]}
